For two molecules, binding results are on record in paper PMC11163939.

Chains of the proteins cited; added tags and fusions are not shown. Residues count along the entry.
UniProt Q9UBS4, residues 23-358: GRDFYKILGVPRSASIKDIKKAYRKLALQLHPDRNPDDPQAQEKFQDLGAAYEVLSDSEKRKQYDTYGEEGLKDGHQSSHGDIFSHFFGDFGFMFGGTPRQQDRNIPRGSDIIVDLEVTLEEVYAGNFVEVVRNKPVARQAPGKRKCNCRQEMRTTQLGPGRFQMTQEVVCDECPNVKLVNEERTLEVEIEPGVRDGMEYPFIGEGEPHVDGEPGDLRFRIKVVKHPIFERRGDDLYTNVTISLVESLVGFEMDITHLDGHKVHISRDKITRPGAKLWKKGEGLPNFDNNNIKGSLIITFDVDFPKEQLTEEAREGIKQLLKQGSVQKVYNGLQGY
UniProt P11021, residues 19-654: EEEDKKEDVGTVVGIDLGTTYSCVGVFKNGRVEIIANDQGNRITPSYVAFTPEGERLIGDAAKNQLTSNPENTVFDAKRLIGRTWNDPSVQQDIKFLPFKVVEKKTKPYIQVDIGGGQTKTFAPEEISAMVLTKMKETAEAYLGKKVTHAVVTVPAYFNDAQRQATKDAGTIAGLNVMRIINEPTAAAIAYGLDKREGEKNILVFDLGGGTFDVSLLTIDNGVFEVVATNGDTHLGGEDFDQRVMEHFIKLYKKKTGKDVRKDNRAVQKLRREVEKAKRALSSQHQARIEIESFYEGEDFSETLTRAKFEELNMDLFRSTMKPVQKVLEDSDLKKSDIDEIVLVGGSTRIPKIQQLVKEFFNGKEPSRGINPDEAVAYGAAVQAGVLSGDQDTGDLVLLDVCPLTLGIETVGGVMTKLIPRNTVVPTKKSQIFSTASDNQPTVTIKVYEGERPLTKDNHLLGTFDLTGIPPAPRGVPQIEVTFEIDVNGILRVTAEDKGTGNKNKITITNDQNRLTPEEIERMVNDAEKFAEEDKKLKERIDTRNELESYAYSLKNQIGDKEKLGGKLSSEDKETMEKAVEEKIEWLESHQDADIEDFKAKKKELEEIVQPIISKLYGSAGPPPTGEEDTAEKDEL

These are yes or no findings as the source states them, for the method shown. Binding seen in cells or lysates may run through a third protein. Some binding calls cover weakened binding; strength is not graded here. For some assays here: Tags and fused reporters may be left off the sequences shown.

Assay [1] concerns the target myc‐tagged ERdj3 at the C‐terminus (wild type) (UniProt Q9UBS4). As to the kind of experiment: co-IP; Figure S8a, lanes 11 and 12, ERdj3 WT against H53Q with BiP; the method is taken from the lanes of a blot, the legend and the antibody used to precipitate were not shown.
The target of assay [2] is T1, C‐terminal FLAG‐tagged human EDEM1 (ER degradation‐enhancing α‐mannosidase‐like protein 1) (human) (UniProt Q92611).
T1 sequence: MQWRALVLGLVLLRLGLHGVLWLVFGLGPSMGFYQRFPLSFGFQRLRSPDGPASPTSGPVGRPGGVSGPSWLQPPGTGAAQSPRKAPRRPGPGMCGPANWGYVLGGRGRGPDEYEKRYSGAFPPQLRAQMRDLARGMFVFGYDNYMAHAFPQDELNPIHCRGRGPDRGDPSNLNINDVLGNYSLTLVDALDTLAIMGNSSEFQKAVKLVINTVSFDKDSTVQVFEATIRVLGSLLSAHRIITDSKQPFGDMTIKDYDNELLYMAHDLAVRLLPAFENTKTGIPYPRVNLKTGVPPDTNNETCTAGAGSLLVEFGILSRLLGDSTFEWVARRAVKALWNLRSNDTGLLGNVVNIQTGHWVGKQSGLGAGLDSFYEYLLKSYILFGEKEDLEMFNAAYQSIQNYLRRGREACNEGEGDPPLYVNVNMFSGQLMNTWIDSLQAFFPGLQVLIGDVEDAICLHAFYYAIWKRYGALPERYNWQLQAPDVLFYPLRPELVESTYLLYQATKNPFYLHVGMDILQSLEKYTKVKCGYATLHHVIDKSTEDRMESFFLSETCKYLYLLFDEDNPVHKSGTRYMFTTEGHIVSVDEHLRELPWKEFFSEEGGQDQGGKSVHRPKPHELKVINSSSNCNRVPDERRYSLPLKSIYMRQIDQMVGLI
As to the kind of experiment: co-IP; 293 EBNA cells transfected with EDEM1-FLAG and OS9-HA (Figure S7); lysis in 1% TX100, 20 mM HEPES pH 7.5, 150 mM NaCl; methods describe immunoisolation of FLAG-tagged proteins on anti-FLAG M2 agarose at 4°C for 1 h, washes with 50 mM Tris-HCl pH 7.5, 0.1% CHAPS, 150 mM NaCl, elution with 500 μM FLAG peptide, western blotting.

BiP (from UniProt P11021 19-654): in assay [1], the binding result is on record as “binds”.

B1: HA‐tagged OS9 (variant 2) at the C‐terminus (protein, UniProt Q13438-2 26-612)
chain: GGVGSLNLEELSEMRYGIEILPLPVMGGQSQSSDVVIVSSKYKQRYECRLPAGAIHFQREREEETPAYQGPGIPELLSPMRDAPCLLKTKDWWTYEFCYGRHIQQYHMEDSEIKGEVLYLGYYQSAFDWDDETAKASKQHRLKRYHSQTYGNGSKCDLNGRPREAEVRFLCDEGAGISGDYIDRVDEPLSCSYVLTIRTPRLCPHPLLRPPPSAAPQAILCHPSLQPEEYMAYVQRQADSKQYGDKIIEELQDLGPQVWSETKSGVAPQKMAGASPTKDDSKDSDFWKMLNEPEDQAPGGEEVPAEEQDPSPEAADSASGAPNDFQNNVQVKVIRSPADLIRFIEELKGGTKKGKPNIGQEQPVDDAAEVPQREPEKERGDPERQREMEEEEDEDEDEDEDEDERQLLGEFEKELEGILLPSDRDRLRSEVKAGMERELENIIQETEKELDPDGLKKESERDRAMLALTSTLNKLIKRLEEKQSPELVKKHKKKRVVPKKPPPSPQPTGKIEIKIVRPWAEGTEEGARWLTDEDTRNLKEIFFNILVPGAEEAQKERQRQKELESNYRRVWGSPGGEGTGDLDEFDF
For B1, the binding entry in assay [2] was “binds”.
